# Test results: the supplement of paper PMC6411743
# ± gives the standard deviation of the averaged measurements. This is a selection; strong and weak results do not stand in their true shares.
# Key:
# Assay in all cases: NP40-soluble protein abundance relative to vehicle (solubility fold change) (ratio); higher = more soluble protein in presence of ATP
# [1] = biological target: T1, Q5TCJ5 and related entries (UniProt Q9H3S1)
# T1 sequence (whole entry): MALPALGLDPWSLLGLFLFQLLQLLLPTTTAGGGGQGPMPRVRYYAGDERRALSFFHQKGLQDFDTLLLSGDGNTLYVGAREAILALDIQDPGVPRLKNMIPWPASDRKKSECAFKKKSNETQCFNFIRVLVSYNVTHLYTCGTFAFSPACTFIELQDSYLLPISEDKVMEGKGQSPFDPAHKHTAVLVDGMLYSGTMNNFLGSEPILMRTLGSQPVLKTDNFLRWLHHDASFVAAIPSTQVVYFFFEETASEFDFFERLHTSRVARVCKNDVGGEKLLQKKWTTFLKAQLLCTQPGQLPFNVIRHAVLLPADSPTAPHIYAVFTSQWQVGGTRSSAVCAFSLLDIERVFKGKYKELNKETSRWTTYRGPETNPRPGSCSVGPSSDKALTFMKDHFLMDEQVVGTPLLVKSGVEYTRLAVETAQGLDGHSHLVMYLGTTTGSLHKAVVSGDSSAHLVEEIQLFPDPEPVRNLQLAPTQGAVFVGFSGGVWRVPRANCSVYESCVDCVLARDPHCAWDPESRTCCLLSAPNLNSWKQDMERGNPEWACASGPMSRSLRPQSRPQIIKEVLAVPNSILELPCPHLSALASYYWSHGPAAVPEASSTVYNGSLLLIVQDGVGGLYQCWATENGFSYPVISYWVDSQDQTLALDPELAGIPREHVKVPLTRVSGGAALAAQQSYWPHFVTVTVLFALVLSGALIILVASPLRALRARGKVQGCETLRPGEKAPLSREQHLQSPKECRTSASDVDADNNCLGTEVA
# Method in brief: (§1)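 Jurkat crude lysate (Dounce-homogenised) was treated with eight concentrations from 0.1 to 10 mM for 10 min at room temperature, then 3 min at 37 °C. It was solubilised with 0.8% NP40 and benzonase (60 min, 4 °C) and ultracentrifuged, and the supernatant was TMT-labelled for LC-MS/MS. Intensities were vsn-normalised, and the value is the fold change against the NP40-processed vehicle per replicate, from three independent experiments.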
# RABL3 = biological target: T2, RABL3 (UniProt Q5HYI8)
# T2 sequence (whole entry): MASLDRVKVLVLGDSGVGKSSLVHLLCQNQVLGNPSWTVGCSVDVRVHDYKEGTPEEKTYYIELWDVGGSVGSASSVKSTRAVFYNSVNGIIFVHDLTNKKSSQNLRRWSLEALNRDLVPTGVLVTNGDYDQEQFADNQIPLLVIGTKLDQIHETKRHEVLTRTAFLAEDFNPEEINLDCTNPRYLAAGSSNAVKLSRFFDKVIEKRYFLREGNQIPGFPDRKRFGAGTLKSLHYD
# Method in brief: as §1
# [2] = biological target: T3, UniProt Q58A45 and related entries
# T3 sequence (whole entry): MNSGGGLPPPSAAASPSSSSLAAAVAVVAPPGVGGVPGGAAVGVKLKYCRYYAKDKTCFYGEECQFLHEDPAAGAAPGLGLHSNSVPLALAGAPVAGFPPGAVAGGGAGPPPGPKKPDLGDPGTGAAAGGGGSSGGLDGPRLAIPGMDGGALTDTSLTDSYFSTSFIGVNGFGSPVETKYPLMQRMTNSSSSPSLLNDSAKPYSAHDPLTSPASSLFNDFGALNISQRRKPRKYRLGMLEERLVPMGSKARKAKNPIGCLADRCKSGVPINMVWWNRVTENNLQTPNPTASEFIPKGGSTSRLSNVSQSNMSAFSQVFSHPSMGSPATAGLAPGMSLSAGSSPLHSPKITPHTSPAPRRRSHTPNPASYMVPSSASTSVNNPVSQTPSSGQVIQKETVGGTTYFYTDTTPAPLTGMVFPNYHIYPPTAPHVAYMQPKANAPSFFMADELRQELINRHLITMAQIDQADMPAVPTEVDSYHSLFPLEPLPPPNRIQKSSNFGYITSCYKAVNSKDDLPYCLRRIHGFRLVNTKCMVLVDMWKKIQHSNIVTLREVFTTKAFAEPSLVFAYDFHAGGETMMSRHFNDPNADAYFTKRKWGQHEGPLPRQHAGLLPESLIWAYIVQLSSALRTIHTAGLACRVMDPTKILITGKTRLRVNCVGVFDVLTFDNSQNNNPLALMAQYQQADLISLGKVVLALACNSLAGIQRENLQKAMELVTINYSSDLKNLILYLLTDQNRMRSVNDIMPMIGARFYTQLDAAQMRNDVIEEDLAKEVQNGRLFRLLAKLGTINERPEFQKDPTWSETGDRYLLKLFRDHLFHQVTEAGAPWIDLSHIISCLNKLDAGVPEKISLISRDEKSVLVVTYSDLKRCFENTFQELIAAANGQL
# Method in brief: as §1
# [3] = biological target: T4, UniProt Q5SGD2 and related entries
# T4 sequence (whole entry): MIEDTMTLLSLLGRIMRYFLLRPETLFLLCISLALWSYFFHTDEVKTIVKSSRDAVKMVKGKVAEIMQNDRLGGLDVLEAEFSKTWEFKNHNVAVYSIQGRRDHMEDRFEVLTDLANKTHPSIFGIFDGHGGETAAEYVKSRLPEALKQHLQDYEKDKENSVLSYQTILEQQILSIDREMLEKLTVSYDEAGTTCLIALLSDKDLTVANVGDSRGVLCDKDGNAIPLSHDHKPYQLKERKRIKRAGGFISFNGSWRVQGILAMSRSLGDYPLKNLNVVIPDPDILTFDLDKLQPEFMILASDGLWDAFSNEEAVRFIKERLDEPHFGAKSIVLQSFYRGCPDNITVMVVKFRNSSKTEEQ
# Method in brief: as §1
smiles,measurement,setting,value
Nc1ncnc2c1ncn2[C@@H]1O[C@H](COP(=O)(O)OP(=O)(O)OP(=O)(O)O)[C@@H](O)[C@H]1O [adenosine triphosphate],NP40-soluble protein abundance,[1]; concentration: 1mM,1.03 ± 0.058
same,NP40-soluble protein abundance,[1]; concentration: 2mM,1.08 ± 0.08
same,NP40-soluble protein abundance,[1]; concentration: 4mM,1.09 ± 0.057
same,NP40-soluble protein abundance,[1]; concentration: 6mM,1.04 ± 0.033
same,NP40-soluble protein abundance,[1]; concentration: 8mM,0.981 ± 0.043
same,NP40-soluble protein abundance,[1]; concentration: 10mM,1.03 ± 0.051
same,NP40-soluble protein abundance,RABL3; concentration: 1mM,1.04 ± 0.045
same,NP40-soluble protein abundance,RABL3; concentration: 2mM,1 ± 0.025
same,NP40-soluble protein abundance,RABL3; concentration: 4mM,1 ± 0.018
same,NP40-soluble protein abundance,RABL3; concentration: 6mM,0.972 ± 0.024
same,NP40-soluble protein abundance,RABL3; concentration: 8mM,1 ± 0.038
same,NP40-soluble protein abundance,RABL3; concentration: 10mM,0.991 ± 0.055
same,NP40-soluble protein abundance,[2]; concentration: 1mM,1.077 ± 0.0091
same,NP40-soluble protein abundance,[2]; concentration: 2mM,1.09 ± 0.034
same,NP40-soluble protein abundance,[2]; concentration: 4mM,1.08 ± 0.015
same,NP40-soluble protein abundance,[2]; concentration: 6mM,1.06 ± 0.035
same,NP40-soluble protein abundance,[2]; concentration: 8mM,1.12 ± 0.052
same,NP40-soluble protein abundance,[2]; concentration: 10mM,1.17 ± 0.039
same,NP40-soluble protein abundance,[3]; concentration: 1mM,1.03 ± 0.046
same,NP40-soluble protein abundance,[3]; concentration: 2mM,1.02 ± 0.051
same,NP40-soluble protein abundance,[3]; concentration: 4mM,1.05 ± 0.087
same,NP40-soluble protein abundance,[3]; concentration: 6mM,1.06 ± 0.048
same,NP40-soluble protein abundance,[3]; concentration: 8mM,1.05 ± 0.15
same,NP40-soluble protein abundance,[3]; concentration: 10mM,1.05 ± 0.013

# A section from further up, for reference:
smiles,measurement,setting,value
Nc1ncnc2c1ncn2[C@@H]1O[C@H](COP(=O)(O)OP(=O)(O)OP(=O)(O)O)[C@@H](O)[C@H]1O [adenosine triphosphate],NP40-soluble protein abundance,[2]; concentration: 4mM,1.08 ± 0.015
same,NP40-soluble protein abundance,[2]; concentration: 6mM,1.06 ± 0.035
same,NP40-soluble protein abundance,[2]; concentration: 8mM,1.12 ± 0.052
same,NP40-soluble protein abundance,[2]; concentration: 10mM,1.17 ± 0.039
